Tested on: THP-1 cells
Assay: Gene expression profiling (microarray) in THP-1 cells
Format: cell-based, human
Conditions: THP-1 microarray, % max. repression / % max. induction, prednisolone = 1
Procedure: THP-1 cells were incubated with glucocorticoid in the presence of either DMSO (control) or IFNγ/TNFα (220 ng/ml/375 ng/ml). After 6 hours total RNA was isolated and further processed for microarray hybridization as described for the HepG2 cells. The data from all microarray experiments have been deposited in the NCBI Gene Expression Omnibus (GEO) under accession number (identifier will be included in proof). […] Expression of FKBP51, MCP-1, IL-6 and IL-8 protein was measured by specific […]; #A[…] [MCP-1], #A[…] [IL-6] and #A[…] [IL-8]) according to the manufacturer manual. […] Expression of FKBP51, DUSP1 and GILZ was measured by Q-PCR according to the same procedure as described for the HepG2 cells. In this case the following primer-pairs were used: for GAPDH: [NT] and [NT]; for FKBP51: [NT] and [NT]; for DUSP1: [NT] and [NT]; for GILZ: [NT] and [NT]. For the evaluation of protein expression, cells were incubated overnight with a whole dose range of compounds. Supernatants were collected to determine cytokine levels and cell lysates were generated by repeated freeze-thaw cycles to measure expression of FKBP51 protein. Expression of FKBP51, MCP-1, IL-6 and IL-8 was measured by specific […]; #A[…] [MCP-1], #A[…] [IL-6] and #A[…] [IL-8]) according to the manufacturer manual. […] Samples were incubated for 60 min at 23 C. […] Plates were measured using an EnVision-Alpha Reader.

`Cc1nnsc1C(=O)N[C@H]1CCN2c3ccc(C#N)cc3[C@@H](C)c3ccccc3[C@@H]2C1` [Org 214007-0] was tested, and the “relative therapeutic index (TIrel)” value was 2.53 and the “relative therapeutic index (TIrel)” value (listed as Org) was 2.5.
